Source: publication PMC6873818
These are yes or no findings as the source states them, for the method shown. Some binding calls cover weakened binding; strength is not graded here.

By UniProt entry, the sequences of proteins in these tests, tags left out.
UniProt Q7Z460: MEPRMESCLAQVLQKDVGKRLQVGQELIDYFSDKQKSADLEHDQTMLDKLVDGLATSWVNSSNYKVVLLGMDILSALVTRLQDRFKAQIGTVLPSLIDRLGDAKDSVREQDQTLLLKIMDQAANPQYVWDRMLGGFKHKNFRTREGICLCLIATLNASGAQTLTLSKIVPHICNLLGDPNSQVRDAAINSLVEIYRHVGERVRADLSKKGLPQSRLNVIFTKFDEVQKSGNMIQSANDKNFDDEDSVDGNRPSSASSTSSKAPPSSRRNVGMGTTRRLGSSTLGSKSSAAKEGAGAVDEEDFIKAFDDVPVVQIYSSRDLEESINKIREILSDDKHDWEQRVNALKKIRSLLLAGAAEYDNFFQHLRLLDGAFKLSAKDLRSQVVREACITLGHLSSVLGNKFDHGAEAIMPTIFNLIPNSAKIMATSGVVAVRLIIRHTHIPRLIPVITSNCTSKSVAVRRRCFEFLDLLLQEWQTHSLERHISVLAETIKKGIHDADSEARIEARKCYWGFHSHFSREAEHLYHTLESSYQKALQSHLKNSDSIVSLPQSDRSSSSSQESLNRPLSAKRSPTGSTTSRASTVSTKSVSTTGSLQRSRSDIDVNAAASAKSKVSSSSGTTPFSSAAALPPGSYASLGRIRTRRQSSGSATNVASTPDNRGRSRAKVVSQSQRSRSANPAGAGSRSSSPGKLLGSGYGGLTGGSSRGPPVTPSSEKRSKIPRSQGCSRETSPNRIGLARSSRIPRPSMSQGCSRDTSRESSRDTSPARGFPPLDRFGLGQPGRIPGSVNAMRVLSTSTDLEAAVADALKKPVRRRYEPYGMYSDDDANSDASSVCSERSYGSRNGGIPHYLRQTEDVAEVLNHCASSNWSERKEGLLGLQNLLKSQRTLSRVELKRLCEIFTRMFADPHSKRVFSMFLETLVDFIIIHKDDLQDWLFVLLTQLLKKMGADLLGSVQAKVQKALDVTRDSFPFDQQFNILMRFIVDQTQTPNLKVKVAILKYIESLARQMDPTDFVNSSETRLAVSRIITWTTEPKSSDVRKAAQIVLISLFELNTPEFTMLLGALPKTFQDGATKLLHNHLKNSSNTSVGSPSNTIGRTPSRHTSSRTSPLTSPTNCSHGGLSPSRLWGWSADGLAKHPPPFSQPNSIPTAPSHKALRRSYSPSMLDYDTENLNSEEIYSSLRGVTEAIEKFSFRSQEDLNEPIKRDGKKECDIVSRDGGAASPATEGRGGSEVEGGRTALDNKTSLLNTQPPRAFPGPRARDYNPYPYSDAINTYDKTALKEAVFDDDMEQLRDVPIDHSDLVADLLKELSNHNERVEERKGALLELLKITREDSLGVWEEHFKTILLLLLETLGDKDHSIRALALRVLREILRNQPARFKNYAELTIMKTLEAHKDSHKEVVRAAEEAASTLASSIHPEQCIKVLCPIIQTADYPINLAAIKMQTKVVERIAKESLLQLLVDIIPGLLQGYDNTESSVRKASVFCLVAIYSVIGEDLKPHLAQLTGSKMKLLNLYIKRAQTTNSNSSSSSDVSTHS
UniProt O00165: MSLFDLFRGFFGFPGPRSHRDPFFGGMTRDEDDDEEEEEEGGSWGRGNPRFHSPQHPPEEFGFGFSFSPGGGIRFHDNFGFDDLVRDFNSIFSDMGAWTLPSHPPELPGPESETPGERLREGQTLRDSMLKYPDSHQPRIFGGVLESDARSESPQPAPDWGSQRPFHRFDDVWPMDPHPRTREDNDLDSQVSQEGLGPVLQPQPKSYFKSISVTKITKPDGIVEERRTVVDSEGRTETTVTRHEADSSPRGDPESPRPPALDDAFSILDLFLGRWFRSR

What was measured:
[1] = molecular target: T1, SLC25A5 (human (endogenous in HEK293T)) (UniProt P05141); assay: SEC; DIF-FRAC control sample (co-fractionation mass spectrometry): clarified HEK293T lysate without RNase A, native SEC on BioSep-SEC-s4000 in PBS pH 7.2, 50 fractions, proteins of each fraction identified by LC-MS/MS; co-elution of elution profiles
T1 sequence: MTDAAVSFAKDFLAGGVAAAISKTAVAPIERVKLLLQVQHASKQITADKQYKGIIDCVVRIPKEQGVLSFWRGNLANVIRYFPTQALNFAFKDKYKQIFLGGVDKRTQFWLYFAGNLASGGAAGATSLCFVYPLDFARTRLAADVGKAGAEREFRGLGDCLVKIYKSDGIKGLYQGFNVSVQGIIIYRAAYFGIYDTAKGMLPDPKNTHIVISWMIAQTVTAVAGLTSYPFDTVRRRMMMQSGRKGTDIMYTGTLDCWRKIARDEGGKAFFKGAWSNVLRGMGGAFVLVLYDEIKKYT

[2] = molecular target: T1, SLC25A5 (human (endogenous in HEK293T)); assay: SEC; DIF-FRAC RNase A-treated sample (co-fractionation mass spectrometry): clarified HEK293T lysate with RNase A (80 ug, 30 min, room temperature), native SEC on BioSep-SEC-s4000 in PBS pH 7.2, 50 fractions, proteins of each fraction identified by LC-MS/MS; co-elution of elution profiles
[3] = molecular target: CLASP1 (human (endogenous in HEK293T)) (UniProt Q7Z460); assay: SEC; DIF-FRAC control sample (co-fractionation mass spectrometry): clarified HEK293T lysate without RNase A, native SEC on BioSep-SEC-s4000 in PBS pH 7.2, 50 fractions, proteins of each fraction identified by LC-MS/MS; co-elution of elution profiles
[4] = molecular target: CLASP1 (human (endogenous in HEK293T)) (UniProt Q7Z460); assay: SEC; DIF-FRAC RNase A-treated sample (co-fractionation mass spectrometry): clarified HEK293T lysate with RNase A (80 ug, 30 min, room temperature), native SEC on BioSep-SEC-s4000 in PBS pH 7.2, 50 fractions, proteins of each fraction identified by LC-MS/MS; co-elution of elution profiles

Molecule | binding [1] | binding [2] | binding [3] | binding [4]
HAX1 (from UniProt O00165 1-279) | binds | binds | – | –
CLASP2 (protein, UniProt O75122 1-1294) MAMGDDKSFDDEESVDGNRPSSAASAFKVPAPKTSGNPANSARKPGSAGGPKVGGASKEGGAGAVDEDDFIKAFTDVPSIQIYSSRELEETLNKIREILSDDKHDWDQRANALKKIRSLLVAGAAQYDCFFQHLRLLDGALKLSAKDLRSQVVREACITVAHLSTVLGNKFDHGAEAIVPTLFNLVPNSAKVMATSGCAAIRFIIRHTHVPRLIPLITSNCTSKSVPVRRRSFEFLDLLLQEWQTHSLERHAAVLVETIKKGIHDADAEARVEARKTYMGLRNHFPGEAETLYNSLEPSYQKSLQTYLKSSGSVASLPQSDRSSSSSQESLNRPFSSKWSTANPSTVAGRVSAGSSKASSLPGSLQRSRSDIDVNAAAGAKAHHAAGQSVRSGRLGAGALNAGSYASLEDTSDKLDGTASEDGRVRAKLSAPLAGMGNAKADSRGRSRTKMVSQSQPGSRSGSPGRVLTTTALSTVSSGVQRVLVNSASAQKRSKIPRSQGCSREASPSRLSVARSSRIPRPSVSQGCSREASRESSRDTSPVRSFQPLASRHHSRSTGALYAPEVYGASGPGYGISQSSRLSSSVSAMRVLNTGSDVEEAVADALKKPARRRYESYGMHSDDDANSDASSACSERSYSSRNGSIPTYMRQTEDVAEVLNRCASSNWSERKEGLLGLQNLLKNQRTLSRVELKRLCEIFTRMFADPHGKRVFSMFLETLVDFIQVHKDDLQDWLFVLLTQLLKKMGADLLGSVQAKVQKALDVTRESFPNDLQFNILMRFTVDQTQTPSLKVKVAILKYIETLAKQMDPGDFINSSETRLAVSRVITWTTEPKSSDVRKAAQSVLISLFELNTPEFTMLLGALPKTFQDGATKLLHNHLRNTGNGTQSSMGSPLTRPTPRSPANWSSPLTSPTNTSQNTLSPSAFDYDTENMNSEDIYSSLRGVTEAIQNFSFRSQEDMNEPLKRDSKKDDGDSMCGGPGMSDPRAGGDATDSSQTALDNKASLLHSMPTHSSPRSRDYNPYNYSDSISPFNKSALKEAMFDDDADQFPDDLSLDHSDLVAELLKELSNHNERVEERKIALYELMKLTQEESFSVWDEHFKTILLLLLETLGDKEPTIRALALKVLREILRHQPARFKNYAELTVMKTLEAHKDPHKEVVRSAEEAASVLATSISPEQCIKVLCPIIQTADYPINLAAIKMQTKVIERVSKETLNLLLPEIMPGLIQGYDNSESSVRKACVFCLVAVHAVIGDELKPHLSQLTGSKMKLLNLYIKRAQTGSGGADPTTDVSGQS | – | – | binds | binds
